Values from PubChem BioAssay AID504786 (Drosophila RNAi Screening Center, 2011)
The deposit covers about 21,000 reagents; below is a random part of those that have a named target and a result. 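Primary screen; positive scores mean lost reporter signal, so the sign may be inverted from the usual convention.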 Reagents against one gene are numbered here. Reagent sequences are not shown.

Aim: 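Knock-downs reducing HIF reporter induction by the iron chelator DFO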 (primary screen)
Cell system: Drosophila S2 cells with a stable HIF luciferase reporter
Reagent: long dsRNA against Drosophila genes, about 0.2 µg dsRNA per well of a 384-well plate
Timing: three days of knock-down, then 20 h of DFO before reading
Challenge: desferrioxamine (DFO) at 100 µM, an iron chelator that mimics hypoxia, for 20 h
Measurement: 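Firefly luciferase driven by the mouse ldh-a hypoxia-response element, measured after 20 h of 100 µM DFO; z-scores per plate, higher means more signal lost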
Reading the numbers: z-score: higher = stronger loss of HIF reporter signal

{"Target gene": "CG30281 (GeneID 246525)", "dsRNA no.": 1, "z-score, replicate 1": 0, "z-score, replicate 2": 0}
{"Target gene": "CG9316 (GeneID 35333)", "dsRNA no.": 1, "z-score, replicate 1": -0.2, "z-score, replicate 2": -0.2}
{"Target gene": "CG1387 (GeneID 31770)", "dsRNA no.": 1, "z-score, replicate 1": -0.4, "z-score, replicate 2": -0.6}
{"Target gene": "CG7448 (retired record) (GeneID 40440)", "dsRNA no.": 1, "z-score, replicate 1": -0.3, "z-score, replicate 2": -0.3}
{"Target gene": "Or98a (GeneID 43341)", "dsRNA no.": 1, "z-score, replicate 1": -0.3, "z-score, replicate 2": -0.7}
{"Target gene": "cpa (GeneID 37387)", "dsRNA no.": 1, "z-score, replicate 1": -0.1, "z-score, replicate 2": 0.5}
{"Target gene": "cu (GeneID 41339)", "dsRNA no.": 1, "z-score, replicate 1": 0, "z-score, replicate 2": 0}
{"Target gene": "cu (GeneID 41339)", "dsRNA no.": 2, "z-score, replicate 1": -0.3, "z-score, replicate 2": 0}
{"Target gene": "CG7080 (GeneID 42609)", "dsRNA no.": 1, "z-score, replicate 1": -0.3, "z-score, replicate 2": -0.6}
{"Target gene": "CG13510 (GeneID 37596)", "dsRNA no.": 1, "z-score, replicate 1": -0.4, "z-score, replicate 2": -0.6}
{"Target gene": "EMC6 (GeneID 42992)", "dsRNA no.": 1, "z-score, replicate 1": 0, "z-score, replicate 2": -0.5}
{"Target gene": "CG11050 (GeneID 33924)", "dsRNA no.": 1, "z-score, replicate 1": 0.4, "z-score, replicate 2": 0.2}

Laid out differently: entries from further up
Target gene | dsRNA no. | z-score, replicate 1 | z-score, replicate 2
CG30281 (GeneID 246525) | 1 | 0 | 0
CG9316 (GeneID 35333) | 1 | -0.2 | -0.2
CG1387 (GeneID 31770) | 1 | -0.4 | -0.6
CG7448 (retired record) (GeneID 40440) | 1 | -0.3 | -0.3

Further records follow:
{"Target gene": "CR30374 (GeneID 10178922)", "dsRNA no.": 1, "z-score, replicate 1": -0.3, "z-score, replicate 2": -0.2}
{"Target gene": "ro (GeneID 43234)", "dsRNA no.": 1, "z-score, replicate 1": -0.7, "z-score, replicate 2": -0.6}
{"Target gene": "CG12499 (GeneID 42637)", "dsRNA no.": 1, "z-score, replicate 1": 2.3, "z-score, replicate 2": 3.8}
{"Target gene": "EndoB (GeneID 37218)", "dsRNA no.": 1, "z-score, replicate 1": -0.3, "z-score, replicate 2": -0.9}
{"Target gene": "Tsp3A (GeneID 31244)", "dsRNA no.": 1, "z-score, replicate 1": -0.4, "z-score, replicate 2": -0.4}
{"Target gene": "Sply (GeneID 46059)", "dsRNA no.": 1, "z-score, replicate 1": 0, "z-score, replicate 2": -0.3}
{"Target gene": "frac (GeneID 38850)", "dsRNA no.": 1, "z-score, replicate 1": -0.4, "z-score, replicate 2": -0.5}
{"Target gene": "CG16974 (GeneID 34713)", "dsRNA no.": 1, "z-score, replicate 1": -0.1, "z-score, replicate 2": -0.3}
{"Target gene": "CG9692 (GeneID 39865)", "dsRNA no.": 1, "z-score, replicate 1": -0.2, "z-score, replicate 2": 1.4}
{"Target gene": "Rpn13R (GeneID 31433)", "dsRNA no.": 1, "z-score, replicate 1": -0.3, "z-score, replicate 2": -0.6}
{"Target gene": "br (GeneID 44505)", "dsRNA no.": 1, "z-score, replicate 1": -0.6, "z-score, replicate 2": -0.6}
{"Target gene": "br (GeneID 44505)", "dsRNA no.": 2, "z-score, replicate 1": -0.1, "z-score, replicate 2": -0.7}
{"Target gene": "br (GeneID 44505)", "dsRNA no.": 3, "z-score, replicate 1": -0.4, "z-score, replicate 2": -0.6}
{"Target gene": "br (GeneID 44505)", "dsRNA no.": 4, "z-score, replicate 1": -0.3, "z-score, replicate 2": -0.8}
{"Target gene": "ssp2 (GeneID 39540)", "dsRNA no.": 1, "z-score, replicate 1": -0.3, "z-score, replicate 2": -0.4}
